Test results reported in PMC10163288.
Some of the results follow.

B1: il10ra_site1_normal_mot_HHH_b1_00999_000000080_0001_41_55_H_._HHH_b1_02031_af2_0001_0000900032_0000002_0 (protein)
chain: SSSSSDEEEEEVRELLEEAKRIPDPRERIEILLEALRIALHLGNEELLQLVWRVIKELGSSSSSS
B2: il10ra_site1_normal_mot_HHH_b2_00943_af2_000000149_0001_1_17_H_._HHH_b2_02724_af2_0001_0000100001_0000001_1 (protein)
chain: SSSSSEEFEELVEEAERLAKELGDENVRFLIRQLEKAYKLAGDSWAKEILENLLKELEELGSSSS
B3: il10ra_site1_normal_mot_8756ee2cf497b5429c717dfc0c0bcfd6_0001_000000186_0001_1_13_H_._HHH_b1_01406_af2_0001_0000300010_0000002_0 (protein)
chain: SSSSSTEAVELLREVVELIAEGNPEEAEKLIEEAEKVAEEEGNDVILWQLEYLKRHIEDSSSSSS
B4: il10ra_site1_normal_mot_HHH_b2_00345_af2_000000013_0001_42_56_H_._HHH_b1_02819_0001_0000300036_0000001_0 (protein)
chain: SSSSSDEEERIEELLEEAEQIDDREERVEVLLEALRLAIELGDAELLQEIWEVFKKLIHSSSSSS
B5: il10ra_site1_normal_mot_HHH_b2_06857_af2_000000179_0001_42_54_H_._HHH_b2_03020_af2_0001_0000800034_0000001_0 (protein)
chain: SSSSSSSETQKVFELLRRAAQIEDKEEAREIVEEAEELAEELGNELLEWQARFLLRALSSSSSSS
B6: il10ra_site1_normal_mot_HHH_b2_00262_000000269_0001_18_35_H_._HHH_b1_07801_0001_0000100014_0000001_0_af2pred_0001 (protein)
chain: SSSSNLEERALHLLVRAFRLAENGNPEEAERVLEELKELVEENNDEELRRAVLSLERFLGSSSSS
B7: il10ra_site1_normal_mot_HHH_b2_08186_000000021_0001_43_56_H_._HHH_b2_07301_af2_0001_0000300015_0000001_0 (protein)
chain: SSSSDELEELERELKEALERGDREEFLRLVQEVLRLAIRLGDQEALQEVWRLLEEFRKRISSSSS
B8: il10ra_site1_normal_mot_HHH_b1_08411_af2_000000053_0001_1_20_H_._HHH_b2_00099_0001_0000200020_0000001_0 (protein)
chain: SSSSQEEFEIARKVIEQVIRLQREGNPEEARRLIEELEELAEELDNVALKAAVEALKRSVNSSSS
B9: il10ra_site1_normal_mot_HHH_b2_05813_000000266_0001_1_19_H_._6fc214f1d55fddbe6d2ca43977f8e0e4_0001_0001_0000400012_0000001_0_af2pred_0001 (protein)
chain: SSVRLLLILLARLSSPAALRIRVAIKRLLDKGVPPEEIIEIVKELAEELGDPEVLRLIEEAERNG
B10: il10ra_site1_sap_15_mot_HHH_b1_02997_000000220_0001_39_52_H_._HHH_b1_02583_af2_0001_0000300016_0000001_0_0001 (protein)
chain: SSSSDEAFELAEEAIKRAKELFENGNPEEAERLLEEVIEELEERGNFAVVFSLRHLLRVLRSSSS
B11: il10ra_site1_sap_25_mot_aff62e40800cfbf30c5099bd910ef069_0001_af2_000000256_0001_1_14_H_._HHH_b2_02556_0001_0000400023_0000002_0_0001_af2pred_0001 (protein)
chain: SSSSSRAEIAARFHEHILRAALELGDPEDAERTVRIASDALKRAGNPELAEELEEVYRELTSSSS
B12: il10ra_site1_sap_34_mot_HHH_b1_03763_000000209_0001_22_38_H_._HHH_b1_03453_0001_0000300018_0000001_0_0001_af2pred_0001 (protein)
chain: SSSSSNLEEHVRRAIRAARIAAERGNPRIARLILELIAIFVREAGDEELLKLLEEVLEELSSSSS
B13: il10ra_site1_sap_19_mot_HHH_b2_02736_000000092_0001_22_38_H_._HHH_b1_05369_0001_0000200024_0000002_0_0001 (protein)
chain: SSSSDEERQEAAQAALEAFRLAIRGNPEEAREVLEEALKLAEELNDERAAKMLRDLLKALTSSSS
B14: il10ra_site1_normal_mot_HHH_b2_00984_000000042_0001_1_20_H_._HHH_b2_04946_af2_0001_0000100006_0000001_1 (protein)
chain: SSSSSSSSEELLEELEKLAEEGDQEKFLRLAQEILQLLLELGDAEALKELWELIRKFASSSSSSS
B15: il10ra_site1_normal_mot_HHH_b1_05357_000000034_0001_23_39_H_._ems_3hC_894_af2_0001_0000100001_0000001_0 (protein)
chain: SDLKLRVSHLIIQIYALAHQQQDPRLRELAEELARLAVEAAARNDEEKLKEVLEEAEEVVREGSS
B16: il10ra_site1_sap_21_mot_HHH_b1_03763_000000209_0001_22_38_H_._HHH_b1_06027_0001_0000700036_0000001_0_0001 (protein)
chain: SSSSSEREELYELSQRALELWAEGNPEEAEELLREAERLAEELGSRVLLINLRYALERLSSSSSS
B17: il10ra_site1_normal_mot_HHH_b2_00984_000000042_0001_1_20_H_._HHH_b1_06265_0001_0000500026_0000001_0 (protein)
chain: SSSSSDEEEEEIEELLEEAKRIKDLEEAAEVLLEATRIALHAGNAELLQEVWEVIKKLASSSSSS
B18: il10ra_site1_sap_18_mot_HHH_b2_03963_af2_000000216_0001_1_19_H_._HHH_b1_04083_0001_0000300034_0000002_0_0001_af2pred_dldesign_0_af2pred (protein)
chain: SSSSSPVEELVEEYCKRLAELRRAGRDDEAAALLAEATAELEALGDPEAVHRLNVFAELSLSSSS

biological target: il10ra, Q13651; assay: yeast display titration

Row | Binder | apparent Kd
1 | B1 | inactive: no binding seen
2 | B2 | inactive: no binding seen
3 | B3 | inactive: no binding seen
4 | B4 | inactive: no binding seen
5 | B5 | inactive: no binding seen
6 | B6 | inactive: no binding seen
7 | B7 | inactive: no binding seen
8 | B8 | inactive: no binding seen
9 | B9 | inactive: no binding seen
10 | B10 | inactive: no binding seen
11 | B11 | inactive: no binding seen
12 | B12 | inactive: no binding seen
13 | B13 | inactive: > 373 nM
14 | B14 | inactive: no binding seen
15 | B15 | inactive: no binding seen
16 | B16 | inactive: no binding seen
17 | B17 | inactive: no binding seen
18 | B18 | inactive: no binding seen

A different layout for some results above:

| Row | Binder | apparent Kd |
| --- | --- | --- |
| 11 | B11 | inactive: no binding seen |
| 12 | B12 | inactive: no binding seen |
| 13 | B13 | inactive: > 373 nM |
| 14 | B14 | inactive: no binding seen |
| 15 | B15 | inactive: no binding seen |
